# Measurements as given in the supplement of paper PMC11006884.
# Protein sequences, listed by entry. Tags and fused reporters are not part of them. Lines headed by an entry give the natural chain unless they say otherwise; changes in a name come on top.
# UniProt Q5T5Y3: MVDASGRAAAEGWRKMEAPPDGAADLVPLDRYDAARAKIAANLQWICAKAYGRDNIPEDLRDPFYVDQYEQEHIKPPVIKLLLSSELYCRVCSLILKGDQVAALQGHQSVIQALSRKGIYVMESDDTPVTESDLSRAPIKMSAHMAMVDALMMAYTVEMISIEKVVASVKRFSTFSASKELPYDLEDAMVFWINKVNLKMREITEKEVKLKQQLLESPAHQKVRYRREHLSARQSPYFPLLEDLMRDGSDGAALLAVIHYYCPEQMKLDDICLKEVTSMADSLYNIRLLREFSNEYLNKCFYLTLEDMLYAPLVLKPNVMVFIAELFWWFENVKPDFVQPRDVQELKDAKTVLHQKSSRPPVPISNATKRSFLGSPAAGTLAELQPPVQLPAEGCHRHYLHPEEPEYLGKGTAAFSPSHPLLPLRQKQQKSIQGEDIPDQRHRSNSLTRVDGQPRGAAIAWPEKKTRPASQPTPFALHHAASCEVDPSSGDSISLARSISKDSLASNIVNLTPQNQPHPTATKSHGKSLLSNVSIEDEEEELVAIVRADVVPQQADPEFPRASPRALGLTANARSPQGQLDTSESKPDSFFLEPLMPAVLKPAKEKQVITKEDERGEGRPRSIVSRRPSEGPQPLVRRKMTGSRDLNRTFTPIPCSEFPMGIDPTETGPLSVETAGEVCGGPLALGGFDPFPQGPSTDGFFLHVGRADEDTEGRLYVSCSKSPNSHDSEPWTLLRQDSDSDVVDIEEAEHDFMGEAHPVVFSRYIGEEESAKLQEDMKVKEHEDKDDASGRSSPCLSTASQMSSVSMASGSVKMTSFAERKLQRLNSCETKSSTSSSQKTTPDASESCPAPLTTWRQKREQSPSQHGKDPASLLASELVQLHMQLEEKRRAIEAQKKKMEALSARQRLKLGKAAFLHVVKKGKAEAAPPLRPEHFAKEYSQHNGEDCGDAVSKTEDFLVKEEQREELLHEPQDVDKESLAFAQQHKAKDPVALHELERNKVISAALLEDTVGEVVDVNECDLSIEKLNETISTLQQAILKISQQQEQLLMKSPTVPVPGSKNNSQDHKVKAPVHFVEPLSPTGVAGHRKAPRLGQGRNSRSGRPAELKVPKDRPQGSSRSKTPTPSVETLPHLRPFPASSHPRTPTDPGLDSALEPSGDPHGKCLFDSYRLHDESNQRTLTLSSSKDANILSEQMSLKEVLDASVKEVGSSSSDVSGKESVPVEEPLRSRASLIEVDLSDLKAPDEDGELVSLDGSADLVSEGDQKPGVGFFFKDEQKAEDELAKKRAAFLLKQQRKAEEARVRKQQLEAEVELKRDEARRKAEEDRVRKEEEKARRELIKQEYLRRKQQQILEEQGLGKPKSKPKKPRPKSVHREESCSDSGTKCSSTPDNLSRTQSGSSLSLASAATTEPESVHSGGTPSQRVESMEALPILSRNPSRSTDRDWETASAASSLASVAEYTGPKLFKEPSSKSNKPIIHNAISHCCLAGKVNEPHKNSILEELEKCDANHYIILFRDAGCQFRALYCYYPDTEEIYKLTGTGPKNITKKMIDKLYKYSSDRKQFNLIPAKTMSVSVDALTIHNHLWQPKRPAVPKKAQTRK
# UniProt Q6R327, whole entry: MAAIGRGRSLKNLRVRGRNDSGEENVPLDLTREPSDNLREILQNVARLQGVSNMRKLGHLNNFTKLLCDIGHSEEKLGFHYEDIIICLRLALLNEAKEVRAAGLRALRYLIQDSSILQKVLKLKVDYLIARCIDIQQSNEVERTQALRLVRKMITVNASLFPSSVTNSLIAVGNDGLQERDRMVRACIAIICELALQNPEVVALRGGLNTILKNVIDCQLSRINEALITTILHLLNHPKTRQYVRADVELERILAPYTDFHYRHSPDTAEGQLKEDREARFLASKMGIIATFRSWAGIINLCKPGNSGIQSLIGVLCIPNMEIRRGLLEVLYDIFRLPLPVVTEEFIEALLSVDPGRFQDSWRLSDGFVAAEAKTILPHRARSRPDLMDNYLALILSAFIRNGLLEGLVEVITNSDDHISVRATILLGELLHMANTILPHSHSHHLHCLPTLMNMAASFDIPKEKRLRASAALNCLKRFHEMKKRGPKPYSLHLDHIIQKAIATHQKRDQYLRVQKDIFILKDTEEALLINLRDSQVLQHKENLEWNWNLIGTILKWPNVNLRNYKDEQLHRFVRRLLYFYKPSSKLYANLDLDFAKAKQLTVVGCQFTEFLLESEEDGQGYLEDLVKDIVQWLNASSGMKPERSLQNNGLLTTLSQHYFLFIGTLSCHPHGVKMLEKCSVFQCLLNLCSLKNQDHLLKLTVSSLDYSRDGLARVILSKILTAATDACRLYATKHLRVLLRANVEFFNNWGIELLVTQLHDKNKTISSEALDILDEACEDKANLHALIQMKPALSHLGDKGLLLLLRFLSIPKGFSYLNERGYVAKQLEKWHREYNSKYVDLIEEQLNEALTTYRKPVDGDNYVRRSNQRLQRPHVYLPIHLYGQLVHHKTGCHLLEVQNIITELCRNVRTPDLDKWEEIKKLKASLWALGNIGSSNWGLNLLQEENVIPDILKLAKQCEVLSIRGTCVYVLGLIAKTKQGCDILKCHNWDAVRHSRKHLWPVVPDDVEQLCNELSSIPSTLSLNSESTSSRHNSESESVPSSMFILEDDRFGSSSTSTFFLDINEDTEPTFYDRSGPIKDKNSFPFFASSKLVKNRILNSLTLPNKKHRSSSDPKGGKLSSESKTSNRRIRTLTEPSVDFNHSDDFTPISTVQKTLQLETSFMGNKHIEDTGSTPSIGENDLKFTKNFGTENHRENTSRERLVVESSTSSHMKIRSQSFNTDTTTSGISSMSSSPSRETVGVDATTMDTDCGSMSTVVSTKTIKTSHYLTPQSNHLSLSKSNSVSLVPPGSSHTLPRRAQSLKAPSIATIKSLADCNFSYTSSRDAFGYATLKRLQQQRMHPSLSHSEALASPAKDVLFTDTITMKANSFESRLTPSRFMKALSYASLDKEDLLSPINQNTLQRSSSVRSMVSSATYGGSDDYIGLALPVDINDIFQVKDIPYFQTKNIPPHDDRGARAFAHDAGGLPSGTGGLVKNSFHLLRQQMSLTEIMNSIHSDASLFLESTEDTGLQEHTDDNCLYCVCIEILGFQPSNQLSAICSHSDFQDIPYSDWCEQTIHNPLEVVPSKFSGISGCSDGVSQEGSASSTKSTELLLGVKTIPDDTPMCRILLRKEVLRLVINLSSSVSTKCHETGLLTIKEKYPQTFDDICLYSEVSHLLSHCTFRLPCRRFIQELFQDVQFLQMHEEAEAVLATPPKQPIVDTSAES
# UniProt Q6Y7W6: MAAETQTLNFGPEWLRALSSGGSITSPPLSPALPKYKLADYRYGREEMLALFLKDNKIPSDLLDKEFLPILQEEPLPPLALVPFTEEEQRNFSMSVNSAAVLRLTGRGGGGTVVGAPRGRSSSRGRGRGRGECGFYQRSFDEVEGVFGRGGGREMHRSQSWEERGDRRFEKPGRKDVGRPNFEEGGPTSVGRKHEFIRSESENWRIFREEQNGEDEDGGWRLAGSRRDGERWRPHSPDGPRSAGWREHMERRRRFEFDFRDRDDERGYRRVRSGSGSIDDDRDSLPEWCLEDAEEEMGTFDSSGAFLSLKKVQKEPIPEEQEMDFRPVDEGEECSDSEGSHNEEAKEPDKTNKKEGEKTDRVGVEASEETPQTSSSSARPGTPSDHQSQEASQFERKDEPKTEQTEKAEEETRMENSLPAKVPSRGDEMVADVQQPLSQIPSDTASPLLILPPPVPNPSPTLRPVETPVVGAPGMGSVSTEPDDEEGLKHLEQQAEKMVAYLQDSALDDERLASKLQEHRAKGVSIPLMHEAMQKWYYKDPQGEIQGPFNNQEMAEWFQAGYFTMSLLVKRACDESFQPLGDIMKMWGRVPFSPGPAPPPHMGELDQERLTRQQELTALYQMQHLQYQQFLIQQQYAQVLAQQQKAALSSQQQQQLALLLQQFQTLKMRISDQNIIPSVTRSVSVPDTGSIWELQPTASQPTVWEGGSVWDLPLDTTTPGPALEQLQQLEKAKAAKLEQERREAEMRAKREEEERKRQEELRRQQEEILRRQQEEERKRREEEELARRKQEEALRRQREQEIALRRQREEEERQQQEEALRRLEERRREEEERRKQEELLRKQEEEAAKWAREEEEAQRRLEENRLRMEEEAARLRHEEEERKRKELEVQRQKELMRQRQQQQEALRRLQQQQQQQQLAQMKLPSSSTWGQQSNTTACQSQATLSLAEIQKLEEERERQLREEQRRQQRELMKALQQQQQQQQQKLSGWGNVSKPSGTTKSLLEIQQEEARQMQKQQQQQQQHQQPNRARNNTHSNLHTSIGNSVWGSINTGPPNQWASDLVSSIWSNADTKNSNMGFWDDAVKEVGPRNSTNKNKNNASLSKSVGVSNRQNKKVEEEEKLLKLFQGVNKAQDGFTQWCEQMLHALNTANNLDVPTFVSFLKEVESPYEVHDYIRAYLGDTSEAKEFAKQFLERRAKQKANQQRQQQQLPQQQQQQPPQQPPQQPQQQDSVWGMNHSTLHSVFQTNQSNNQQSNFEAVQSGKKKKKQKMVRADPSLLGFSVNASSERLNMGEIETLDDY
# UniProt Q5BKX5: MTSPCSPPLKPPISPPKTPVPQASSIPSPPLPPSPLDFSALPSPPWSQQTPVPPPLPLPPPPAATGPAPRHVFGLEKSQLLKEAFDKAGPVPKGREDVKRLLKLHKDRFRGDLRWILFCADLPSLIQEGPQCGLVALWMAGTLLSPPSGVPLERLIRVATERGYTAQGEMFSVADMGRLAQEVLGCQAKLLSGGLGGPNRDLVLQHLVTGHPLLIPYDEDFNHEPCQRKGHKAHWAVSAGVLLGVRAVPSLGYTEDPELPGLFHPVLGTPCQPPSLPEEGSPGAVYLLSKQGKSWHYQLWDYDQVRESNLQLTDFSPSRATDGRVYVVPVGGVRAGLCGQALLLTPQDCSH
# UniProt Q5JTD0: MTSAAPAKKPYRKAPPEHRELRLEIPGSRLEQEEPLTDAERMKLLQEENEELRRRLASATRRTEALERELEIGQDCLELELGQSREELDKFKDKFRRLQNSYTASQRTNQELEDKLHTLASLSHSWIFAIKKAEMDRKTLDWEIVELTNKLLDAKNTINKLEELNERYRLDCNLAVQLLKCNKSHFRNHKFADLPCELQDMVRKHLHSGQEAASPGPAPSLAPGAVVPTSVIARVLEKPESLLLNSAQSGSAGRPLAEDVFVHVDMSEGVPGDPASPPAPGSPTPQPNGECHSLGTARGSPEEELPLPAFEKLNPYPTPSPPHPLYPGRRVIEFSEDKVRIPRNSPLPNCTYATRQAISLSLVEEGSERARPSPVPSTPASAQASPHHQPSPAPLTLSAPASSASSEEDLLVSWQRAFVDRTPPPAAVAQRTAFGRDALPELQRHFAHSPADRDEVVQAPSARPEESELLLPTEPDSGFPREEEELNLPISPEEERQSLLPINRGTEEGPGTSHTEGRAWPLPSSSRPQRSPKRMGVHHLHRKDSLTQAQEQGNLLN
# UniProt Q69YN2: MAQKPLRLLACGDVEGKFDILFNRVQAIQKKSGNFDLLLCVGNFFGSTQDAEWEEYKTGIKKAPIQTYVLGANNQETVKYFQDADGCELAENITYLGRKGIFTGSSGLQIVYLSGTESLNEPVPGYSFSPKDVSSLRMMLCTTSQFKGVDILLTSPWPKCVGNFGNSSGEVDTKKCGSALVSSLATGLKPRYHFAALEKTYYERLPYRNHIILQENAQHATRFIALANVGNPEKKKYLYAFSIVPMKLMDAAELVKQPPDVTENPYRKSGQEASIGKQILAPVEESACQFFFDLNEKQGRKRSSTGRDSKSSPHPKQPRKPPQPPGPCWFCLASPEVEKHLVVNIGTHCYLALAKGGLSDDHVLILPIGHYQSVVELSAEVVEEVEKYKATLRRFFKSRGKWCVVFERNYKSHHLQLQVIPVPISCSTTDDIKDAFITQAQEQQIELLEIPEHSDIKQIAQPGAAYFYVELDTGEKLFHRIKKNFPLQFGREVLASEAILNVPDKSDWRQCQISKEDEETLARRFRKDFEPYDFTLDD
# UniProt Q6ZSJ8: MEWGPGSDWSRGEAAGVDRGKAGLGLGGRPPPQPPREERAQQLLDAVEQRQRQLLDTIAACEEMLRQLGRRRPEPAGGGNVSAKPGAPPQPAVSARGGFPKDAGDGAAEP
# UniProt Q5T280: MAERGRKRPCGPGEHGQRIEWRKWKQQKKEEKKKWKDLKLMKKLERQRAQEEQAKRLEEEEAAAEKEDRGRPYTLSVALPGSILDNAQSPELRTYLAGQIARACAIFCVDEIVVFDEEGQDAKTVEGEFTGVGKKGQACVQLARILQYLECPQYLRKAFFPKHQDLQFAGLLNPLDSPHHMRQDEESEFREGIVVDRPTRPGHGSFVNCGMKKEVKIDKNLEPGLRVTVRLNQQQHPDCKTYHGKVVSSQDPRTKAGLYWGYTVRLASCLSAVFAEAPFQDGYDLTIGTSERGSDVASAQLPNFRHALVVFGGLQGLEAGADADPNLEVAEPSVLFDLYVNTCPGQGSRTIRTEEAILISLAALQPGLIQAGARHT
# This is a selection; strong and weak results do not stand in their true shares.
# Compound: COC(=O)C#Cc1ccccc1 [methyl 3-phenylpropiolate]
# Experiment: log2 ratio of iodoacetamide-alkyne labeling of the cysteine site, DMSO over compound (competition); higher = stronger covalent engagement of the cysteine by the compound, active = 1 or more
# Details: 500 µM; treatment time 1 h; system: HEK293T cell lysate
# In short: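 Three replicates, each with duplicate channels, were prepared from HEK293T lysate (2 mg/mL) treated with vehicle or electrophile at 500 µM for 1 h at ambient temperature. Iodoacetamide alkyne was then applied for 1 h, and samples were clicked to sCIP-TMT reagents, pooled, trypsin-digested overnight at 37 °C, enriched on streptavidin, acid-eluted and analysed on Orbitrap Eclipse LC-MS/MS with FAIMS, with FragPipe quantification. The log2 competition ratio per cysteine is the mean control-channel divided by the mean compound-channel reporter intensity. Cysteines quantified in only one replicate were left out.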
row,Target,log2 ratio of iodoacetamide-alkyne labeling
1,CAMSAP1 C848 (UniProt Q5T5Y3),inactive: 0.391
2,ATPAF1 C321 (UniProt Q5TC12),inactive: 0.464
3,PDXDC1 C573 (UniProt Q6P996),inactive: 0.19
4,PGM2L1 C303 (UniProt Q6PCE3),inactive: 0.429
5,RICTOR C1012 (UniProt Q6R327),inactive: 0.373
6,NCAPH2 C309 (UniProt Q6IBW4),inactive: 0.352
7,GIGYF2 C289 (UniProt Q6Y7W6),inactive: -0.00206
8,PITRM1 C780 (UniProt Q5JRX3),inactive: 0.31
9,CTR9 C511 (UniProt Q6PD62),inactive: 0.0657
10,RSBN1L C10 (UniProt Q6PCB5),inactive: 0.291
11,UniProt Q5MNZ6_C6,inactive: 0.235
12,SFXN4 C70 (UniProt Q6P4A7),inactive: 0.215
13,LARP1 C238 (UniProt Q6PKG0),inactive: 0.426
14,UniProt Q6S8J3_C972,inactive: 0.0652
15,UniProt Q6S8J3_C965,inactive: 0.0963
16,DENND4C C115 (UniProt Q5VZ89),inactive: 0.0423
17,PAXIP1 C169 (UniProt Q6ZW49),inactive: 0.19
18,THOC7 C38 (UniProt Q6I9Y2),inactive: 0.0555
19,C19orf54 C226 (UniProt Q5BKX5),inactive: 0.201

row,Target,log2 ratio of iodoacetamide-alkyne labeling
1,UniProt Q6PJG6_C228,active: 1.06
2,ZC3H13 C1666 (UniProt Q5T200),inactive: 0.206
3,ARL6IP4 C220 (UniProt Q66PJ3),inactive: 0.629
4,ANGEL2 C158 (UniProt Q5VTE6),inactive: -0.171
5,UniProt Q6ZSZ5_C699,inactive: 0.239
6,NFXL1 C528 (UniProt Q6ZNB6),inactive: -0.174
7,TJAP1 C196 (UniProt Q5JTD0),inactive: 0.14
8,UniProt Q5VUJ6_C145,inactive: 0.408
9,GIGYF2 C573 (UniProt Q6Y7W6),inactive: 0.264
10,COQ5 C244 (UniProt Q5HYK3),inactive: 0.452
11,TJAP1 C172 (UniProt Q5JTD0),inactive: 0.251
12,CWF19L1 C288 (UniProt Q69YN2),inactive: 0.57
13,C1orf122 C61 (UniProt Q6ZSJ8),inactive: 0.107
14,THADA C144 (UniProt Q6YHU6),inactive: 0.24
15,PDE12 C119 (UniProt Q6L8Q7),inactive: 0.84
16,UniProt Q5T280_C239,inactive: 0.16
17,UniProt Q5JSZ5_C1482,inactive: 0.275
18,EARS2 C341 (UniProt Q5JPH6),inactive: 0.0779

# Laid out differently: entries from further up.
row	Target	log2 ratio of iodoacetamide-alkyne labeling
6	NFXL1 C528 (UniProt Q6ZNB6)	inactive: -0.174
10	COQ5 C244 (UniProt Q5HYK3)	inactive: 0.452
11	TJAP1 C172 (UniProt Q5JTD0)	inactive: 0.251
